According to patent publication US20200330553A1:
These are yes or no findings as the source states them, for the method shown. For some of these results: Binding seen in cells or lysates may run through a third protein. Some binding calls cover weakened binding; strength is not graded here.

Amino acid sequences for entries named in this document (tags omitted). A change or cut given only in a name is not applied to a line headed by its entry.
UniProt Q99523: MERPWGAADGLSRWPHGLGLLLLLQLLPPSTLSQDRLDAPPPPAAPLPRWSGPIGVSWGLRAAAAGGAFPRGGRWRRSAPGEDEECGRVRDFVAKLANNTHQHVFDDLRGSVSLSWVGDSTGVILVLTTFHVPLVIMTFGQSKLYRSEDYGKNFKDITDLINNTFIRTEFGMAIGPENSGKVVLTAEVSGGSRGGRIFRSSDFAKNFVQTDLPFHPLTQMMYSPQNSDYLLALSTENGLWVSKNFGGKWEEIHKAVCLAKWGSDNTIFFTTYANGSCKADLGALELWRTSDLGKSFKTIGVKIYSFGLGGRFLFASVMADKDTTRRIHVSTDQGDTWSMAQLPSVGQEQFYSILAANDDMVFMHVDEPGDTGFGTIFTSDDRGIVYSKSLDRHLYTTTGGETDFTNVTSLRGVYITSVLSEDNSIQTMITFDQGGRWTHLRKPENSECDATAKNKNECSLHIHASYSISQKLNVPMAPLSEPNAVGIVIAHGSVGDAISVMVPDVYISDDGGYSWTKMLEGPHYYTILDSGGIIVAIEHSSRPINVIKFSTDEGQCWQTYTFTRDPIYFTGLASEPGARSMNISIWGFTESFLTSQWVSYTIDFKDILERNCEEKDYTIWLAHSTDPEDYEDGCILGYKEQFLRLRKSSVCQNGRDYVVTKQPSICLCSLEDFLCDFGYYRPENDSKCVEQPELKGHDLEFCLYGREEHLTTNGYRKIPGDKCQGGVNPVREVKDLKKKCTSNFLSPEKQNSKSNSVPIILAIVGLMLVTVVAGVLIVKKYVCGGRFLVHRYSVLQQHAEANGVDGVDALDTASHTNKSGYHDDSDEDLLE

Tests used:
[1] = target: 6×His sortilin 10CC domain+TMD (human) (UniProt Q99523); assay: non-reducing western blot, HEK293 cells
[2] = target: FLAG-sortilin without propeptide (human) (UniProt Q99523); assay: non-reducing western blot, HEK293 cells
[3] = target: FLAG-sortilin ECD+TMD (human) (UniProt Q99523); assay: co-immunoprecipitation with anti-FLAG M2, HEK293 cells
[4] = target: His-wild type sortilin (adenovirus, HCASMCs) (Homo sapiens (Human)) (UniProt Q99523); assay: non-reducing western blot, HCASMCs and their EVs
[5] = target: His-wild type sortilin (adenovirus, HCASMCs) (Homo sapiens (Human)) (UniProt Q99523); assay: non-reducing western blot of input and His-tag pulldown, HCASMC lysates
[6] = target: His-wild type sortilin (adenovirus, HCASMCs) (Homo sapiens (Human)) (UniProt Q99523); assay: non-reducing western blot of input and His-tag pulldown, HCASMCs
[7] = target: His-wild type sortilin (adenovirus, HCASMCs) (Homo sapiens (Human)) (UniProt Q99523); assay: non-reducing western blot of HCASMC-derived EVs

How did the binding [1] turn out when “6×His sortilin 10CC domain+TMD (from UniProt Q99523 605-778) (receptor)” was run?
Its binding is “binds”.

With “FLAG-sortilin without propeptide (from UniProt Q99523 81-831) (receptor)” as the substance, how does the binding [2] read?
The binding was “binds”.

How did the binding [3] turn out when “6×His-sortilin full-length (Full) (from UniProt Q99523 81-831) (receptor)” was run?
The binding was “binds”.

Which binding [4] does the source give for “Flag-S316E mutant sortilin (adenovirus, HCASMCs) (from UniProt Q99523 78-831) (receptor)” here?
Its binding is “binds”.

And the binding [5]?
The binding was “binds”.

And the binding [6]?
Its binding is “binds”.

What about the binding [7] of the same substance?
Its binding is “binds”.
